Measured values published in PMC4277623 (Iranian Journal of Pharmaceutical Research : IJPR, 2015).

Test: general procedure: Fmoc solid-phase peptide synthesis; Rink Amide MBHA resin, loading 0.69 mmol/g; DIC/HOBT/DIPEA; HATU/DIPEA for Boc-HYNIC
Settings: whole synthesis

In the case of HYNIC-Tyr^8-Met(O)^11-SP, the isolated yield is reported as “approximately 53%” and the crude yield (overall) is reported as “about 76%”.
